Laboratory results published in patent US20050053993A1, “Uses of an endothelial cell receptor” (priority 2002, published 2005).
≈ marks a conversion by molar mass, not a printed value.

Test system: A549
Test: Tumor cell proliferation, A549
Assay type: cell-based
Conditions: Homo sapiens; A549, 72 hours
Experimental: Cell Proliferation Assay. The effect of rK5 and rK5 peptides on endothelial cells were assessed using a proliferation assay with 1% BSA and 3 ng/ml bFGF in serum-free media. Relative cell numbers in each well of a 96 well microplate after incubation for 72 hours in the absence or presence of inhibitors were determined by using the AQueous cell proliferation assay (Promega, San Luis Obispo, Calif.). For all other cell lines tested for proliferation, minimal growth media was used (Cao, Y., Ji, R., Davidson, D., Schaller, J., Marti, D., Sohndel, S., McCance, S., O'Reilly, M., Llinas, M., and Folkman, J. Kringle domains of human angiostatin. Characterization of the anti-proliferative activity on endothelial cells. (1996) J. Biol. Chem. 271, 29461-29467). Results are presented as the percent inhibition of control cell (bFGF-induced) proliferation.

With COc1cccc2c1C(=O)c1c(O)c3c(c(O)c1C2=O)C[C@@](O)(C(=O)CO)C[C@@H]3O[C@H]1C[C@H](N)[C@H](O)[C@H](C)O1 [Adriamycin, reference compound] the IC50 was 0.051 ± 0.006 µg/mL (≈ 0.0938 µM).
